Reference: article PMC5148605, “Prefabrication of a ribosomal protein subcomplex essential for eukaryotic ribosome formation” (eLife, 2016)
These are yes or no findings as the source states them, for the method shown. Some binding calls cover weakened binding; strength is not graded here. For some of these results: Where a sequence is shown, tags or fusion partners need not be part of it. Blank lines part the entries; values can stand above or below the binder they belong to.

Amino acid sequences for entries named in this document (tags omitted).
UniProt P53067: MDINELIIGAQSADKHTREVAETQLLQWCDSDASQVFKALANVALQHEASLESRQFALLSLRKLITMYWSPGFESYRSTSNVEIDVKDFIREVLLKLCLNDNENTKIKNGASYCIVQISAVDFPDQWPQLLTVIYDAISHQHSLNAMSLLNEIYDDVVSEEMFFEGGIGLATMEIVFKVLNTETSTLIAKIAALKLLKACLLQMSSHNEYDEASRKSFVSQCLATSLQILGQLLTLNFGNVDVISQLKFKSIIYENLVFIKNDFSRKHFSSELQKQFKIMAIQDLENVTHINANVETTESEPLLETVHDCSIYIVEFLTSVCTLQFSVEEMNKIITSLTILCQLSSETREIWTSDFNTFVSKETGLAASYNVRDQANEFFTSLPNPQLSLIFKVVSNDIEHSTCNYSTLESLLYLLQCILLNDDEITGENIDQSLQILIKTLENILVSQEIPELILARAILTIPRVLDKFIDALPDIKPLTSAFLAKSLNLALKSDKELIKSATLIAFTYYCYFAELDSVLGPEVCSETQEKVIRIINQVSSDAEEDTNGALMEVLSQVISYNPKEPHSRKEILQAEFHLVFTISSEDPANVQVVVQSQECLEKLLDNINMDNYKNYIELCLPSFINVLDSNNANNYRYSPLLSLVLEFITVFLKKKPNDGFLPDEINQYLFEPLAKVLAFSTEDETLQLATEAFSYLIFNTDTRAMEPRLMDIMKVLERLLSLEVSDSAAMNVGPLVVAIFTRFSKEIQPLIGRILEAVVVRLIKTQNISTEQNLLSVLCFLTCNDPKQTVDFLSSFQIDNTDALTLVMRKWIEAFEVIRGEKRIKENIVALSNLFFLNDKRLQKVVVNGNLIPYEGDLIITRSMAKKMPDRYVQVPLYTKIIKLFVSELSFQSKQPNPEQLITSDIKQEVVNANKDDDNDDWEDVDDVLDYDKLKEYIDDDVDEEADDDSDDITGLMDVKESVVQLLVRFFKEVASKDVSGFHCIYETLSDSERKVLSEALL
UniProt Q06142: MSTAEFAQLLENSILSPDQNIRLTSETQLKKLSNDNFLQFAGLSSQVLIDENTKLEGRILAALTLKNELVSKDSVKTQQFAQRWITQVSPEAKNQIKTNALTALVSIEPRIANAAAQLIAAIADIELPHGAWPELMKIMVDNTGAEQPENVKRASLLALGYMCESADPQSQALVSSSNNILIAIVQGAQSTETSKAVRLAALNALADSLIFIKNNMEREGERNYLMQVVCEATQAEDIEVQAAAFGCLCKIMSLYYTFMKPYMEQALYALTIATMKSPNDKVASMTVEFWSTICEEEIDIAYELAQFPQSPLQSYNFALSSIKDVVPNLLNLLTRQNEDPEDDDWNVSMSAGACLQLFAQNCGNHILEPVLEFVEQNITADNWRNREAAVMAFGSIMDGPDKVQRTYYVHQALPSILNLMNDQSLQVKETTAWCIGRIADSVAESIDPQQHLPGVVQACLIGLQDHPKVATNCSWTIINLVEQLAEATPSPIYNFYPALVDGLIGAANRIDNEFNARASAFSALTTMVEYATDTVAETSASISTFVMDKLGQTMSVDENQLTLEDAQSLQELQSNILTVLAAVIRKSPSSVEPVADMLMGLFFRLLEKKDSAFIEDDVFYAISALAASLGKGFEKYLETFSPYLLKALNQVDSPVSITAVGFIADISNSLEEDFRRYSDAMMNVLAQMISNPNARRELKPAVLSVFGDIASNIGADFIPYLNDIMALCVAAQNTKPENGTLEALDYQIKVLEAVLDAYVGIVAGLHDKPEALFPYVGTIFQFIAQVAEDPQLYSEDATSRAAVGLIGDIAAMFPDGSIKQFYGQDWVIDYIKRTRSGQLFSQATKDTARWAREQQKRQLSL

Key:
Enp1-TAP (S. cerevisiae) = biological target: T1, Enp1-TAP (S. cerevisiae) (UniProt P38333); experiment: tandem affinity purification (TAP) with Western analysis; TAP-tagged baits isolated from yeast cells (wild type; also Fap7- or Tsr2-depleted cells and Tsr2-depleted cells co-overexpressing FAP7 and uS11); calmodulin eluates; pre-ribosomal particles
T1 sequence: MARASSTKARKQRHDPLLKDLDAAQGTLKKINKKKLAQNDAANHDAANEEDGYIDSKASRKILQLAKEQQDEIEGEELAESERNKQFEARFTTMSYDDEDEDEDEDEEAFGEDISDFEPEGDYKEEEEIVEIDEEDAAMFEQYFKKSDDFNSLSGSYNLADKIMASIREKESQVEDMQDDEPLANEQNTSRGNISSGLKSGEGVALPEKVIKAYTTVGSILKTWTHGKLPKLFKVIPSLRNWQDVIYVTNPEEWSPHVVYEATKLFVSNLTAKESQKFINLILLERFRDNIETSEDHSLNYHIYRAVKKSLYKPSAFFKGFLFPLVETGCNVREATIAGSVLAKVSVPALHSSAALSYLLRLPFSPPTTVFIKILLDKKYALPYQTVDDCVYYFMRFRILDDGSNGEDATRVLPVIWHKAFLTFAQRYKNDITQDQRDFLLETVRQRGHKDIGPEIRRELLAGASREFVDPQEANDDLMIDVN

[1] = biological target: T2, GST-Kap104 (S. cerevisiae) (UniProt P38217); experiment: pull-down; GST-tagged importins immobilised on Glutathione Sepharose, incubated with buffer, purified Fap7 or Fap7:uS11 for 1 hr, in presence of 100 µl competing E. coli lysate; Coomassie and Western; both purified
T2 sequence: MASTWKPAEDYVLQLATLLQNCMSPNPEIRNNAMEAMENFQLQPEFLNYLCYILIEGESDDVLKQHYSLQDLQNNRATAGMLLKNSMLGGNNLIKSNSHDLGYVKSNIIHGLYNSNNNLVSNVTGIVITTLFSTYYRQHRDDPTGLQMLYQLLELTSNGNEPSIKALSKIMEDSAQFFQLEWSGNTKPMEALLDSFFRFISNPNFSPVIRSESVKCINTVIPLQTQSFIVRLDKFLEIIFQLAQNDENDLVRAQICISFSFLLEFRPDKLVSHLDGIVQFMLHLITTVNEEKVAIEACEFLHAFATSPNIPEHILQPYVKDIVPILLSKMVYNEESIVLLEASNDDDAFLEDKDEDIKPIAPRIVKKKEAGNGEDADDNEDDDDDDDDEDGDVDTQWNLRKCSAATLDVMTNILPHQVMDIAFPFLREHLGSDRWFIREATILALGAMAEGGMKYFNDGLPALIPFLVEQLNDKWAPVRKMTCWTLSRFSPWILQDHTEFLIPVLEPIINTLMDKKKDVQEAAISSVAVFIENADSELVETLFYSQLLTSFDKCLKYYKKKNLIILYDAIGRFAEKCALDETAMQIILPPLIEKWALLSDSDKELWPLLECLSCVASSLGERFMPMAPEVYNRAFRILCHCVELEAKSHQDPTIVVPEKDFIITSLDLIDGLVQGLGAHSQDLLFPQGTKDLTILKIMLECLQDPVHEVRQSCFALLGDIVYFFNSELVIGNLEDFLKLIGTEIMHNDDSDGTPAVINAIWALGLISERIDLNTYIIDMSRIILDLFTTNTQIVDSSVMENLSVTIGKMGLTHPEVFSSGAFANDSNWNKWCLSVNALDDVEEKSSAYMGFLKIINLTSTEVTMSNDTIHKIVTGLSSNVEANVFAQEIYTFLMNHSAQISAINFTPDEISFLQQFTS

[2] = biological target: GST-Kap114 (S. cerevisiae) (UniProt P53067); experiment: as above
[3] = biological target: GST-Kap95 (S. cerevisiae) (UniProt Q06142); experiment: as above
GST-Pdr6 (S. cerevisiae) = biological target: T3, GST-Pdr6 (S. cerevisiae) (UniProt P32767); experiment: as above
T3 sequence: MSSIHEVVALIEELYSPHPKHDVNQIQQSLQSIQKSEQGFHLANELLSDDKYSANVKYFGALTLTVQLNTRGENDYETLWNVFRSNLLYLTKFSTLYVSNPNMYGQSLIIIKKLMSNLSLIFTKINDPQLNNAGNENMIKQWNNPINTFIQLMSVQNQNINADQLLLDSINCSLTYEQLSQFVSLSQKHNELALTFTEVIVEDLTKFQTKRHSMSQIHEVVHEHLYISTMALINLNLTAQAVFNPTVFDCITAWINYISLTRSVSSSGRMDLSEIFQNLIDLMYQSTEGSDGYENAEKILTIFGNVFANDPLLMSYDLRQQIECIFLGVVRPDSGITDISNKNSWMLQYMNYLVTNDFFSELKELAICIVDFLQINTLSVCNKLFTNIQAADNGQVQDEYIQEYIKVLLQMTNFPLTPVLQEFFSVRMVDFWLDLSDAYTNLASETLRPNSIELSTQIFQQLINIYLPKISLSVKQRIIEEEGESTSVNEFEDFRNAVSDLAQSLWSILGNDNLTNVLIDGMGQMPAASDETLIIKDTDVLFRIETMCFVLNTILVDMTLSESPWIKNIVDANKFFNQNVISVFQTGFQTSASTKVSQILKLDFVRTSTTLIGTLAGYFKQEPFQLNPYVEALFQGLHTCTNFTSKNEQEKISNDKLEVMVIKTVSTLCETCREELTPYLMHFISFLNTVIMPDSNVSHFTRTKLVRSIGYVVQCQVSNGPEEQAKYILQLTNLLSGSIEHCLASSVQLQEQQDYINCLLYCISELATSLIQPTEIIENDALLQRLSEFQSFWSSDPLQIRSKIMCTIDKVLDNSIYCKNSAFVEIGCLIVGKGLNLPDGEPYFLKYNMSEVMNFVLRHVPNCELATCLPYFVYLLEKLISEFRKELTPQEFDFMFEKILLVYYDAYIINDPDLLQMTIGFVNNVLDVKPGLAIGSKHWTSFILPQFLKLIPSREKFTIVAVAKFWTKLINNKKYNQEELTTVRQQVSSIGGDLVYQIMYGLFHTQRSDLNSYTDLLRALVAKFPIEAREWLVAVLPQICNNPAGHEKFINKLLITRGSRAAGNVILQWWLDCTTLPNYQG

GST-Pse1 (S. cerevisiae) = biological target: T4, GST-Pse1 (S. cerevisiae) (UniProt P32337); experiment: as above
T4 sequence: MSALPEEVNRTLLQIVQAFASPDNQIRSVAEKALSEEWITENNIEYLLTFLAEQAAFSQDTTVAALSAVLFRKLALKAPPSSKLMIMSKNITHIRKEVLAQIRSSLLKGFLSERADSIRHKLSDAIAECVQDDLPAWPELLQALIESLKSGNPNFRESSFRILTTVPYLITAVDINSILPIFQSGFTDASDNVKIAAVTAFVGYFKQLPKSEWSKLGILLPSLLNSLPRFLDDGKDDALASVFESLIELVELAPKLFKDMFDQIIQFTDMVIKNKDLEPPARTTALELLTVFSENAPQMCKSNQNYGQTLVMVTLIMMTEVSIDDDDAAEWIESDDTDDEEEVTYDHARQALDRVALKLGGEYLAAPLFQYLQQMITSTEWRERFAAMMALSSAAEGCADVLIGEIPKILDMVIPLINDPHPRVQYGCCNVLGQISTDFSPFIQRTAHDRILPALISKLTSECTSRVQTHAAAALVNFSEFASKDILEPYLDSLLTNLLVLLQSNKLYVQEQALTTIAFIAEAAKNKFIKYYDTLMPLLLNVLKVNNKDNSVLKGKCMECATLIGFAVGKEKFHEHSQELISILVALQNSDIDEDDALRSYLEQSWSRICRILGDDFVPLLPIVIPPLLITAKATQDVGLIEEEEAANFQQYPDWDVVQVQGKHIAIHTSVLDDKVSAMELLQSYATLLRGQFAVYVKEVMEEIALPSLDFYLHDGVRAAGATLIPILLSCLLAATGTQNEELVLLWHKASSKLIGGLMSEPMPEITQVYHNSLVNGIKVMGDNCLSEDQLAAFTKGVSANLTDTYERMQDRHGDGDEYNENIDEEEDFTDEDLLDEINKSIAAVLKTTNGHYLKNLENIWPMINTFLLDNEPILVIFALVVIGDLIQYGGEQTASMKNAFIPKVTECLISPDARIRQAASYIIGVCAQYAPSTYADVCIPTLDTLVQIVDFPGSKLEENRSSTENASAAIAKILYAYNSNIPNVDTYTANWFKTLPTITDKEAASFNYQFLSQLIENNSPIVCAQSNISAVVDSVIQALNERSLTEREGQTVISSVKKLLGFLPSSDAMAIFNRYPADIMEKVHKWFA

[4] = biological target: T5, Enp1-TAP (S. cerevisiae), P38333; experiment: tandem affinity purification (TAP) with Western analysis; TAP-tagged baits isolated from yeast cells (wild type; also Fap7- or Tsr2-depleted cells and Tsr2-depleted cells co-overexpressing FAP7 and uS11); calmodulin eluates; pre-ribosomal particles; conditions: remark: other sources report otherwise
T5 chain: T1 sequence

binding (Enp1-TAP (S. cerevisiae)): binds
B1: uS7 (endogenous) (protein, UniProt P26783 1-225)
chain: MSDTEAPVEVQEDFEVVEEFTPVVLATPIPEEVQQAQTEIKLFNKWSFEEVEVKDASLVDYVQVRQPIFVAHTAGRYANKRFRKAQCPIIERLTNSLMMNGRNNGKKLKAVRIIKHTLDIINVLTDQNPIQVVVDAITNTGPREDTTRVGGGGAARRQAVDVSPLRRVNQAIALLTIGAREAAFRNIKTIAETLAEELINAAKGSSTSYAIKKKDELERVAKSNR

binding [1]: no binding
binding [2]: no binding
binding [3]: no binding
binding (GST-Pdr6 (S. cerevisiae)): no binding
binding (GST-Pse1 (S. cerevisiae)): no binding
B2: Fap7 (enzyme, S. cerevisiae, UniProt Q12055 1-197, looked up)
chain: MEARRYGPNIIVTGTPGCGKSSTCEFLKNKLKDYKYYNISDFAKDNDCFEGYDEGRKSHIVDEDKLLDMLEPLLRQGNSIVDWHVNDVFPERLIDLVVVLRCDNSNLYSRLHARGYHDSKIEENLDAEIMGVVKQDAVESYEPHIVVELQSDTKEDMVSNVSRIVAWEKMWLEQHPDGVTNEYQGPRSDDEDDEDSE
notes: Fap7, conserved ATPase, S. cerevisiae (YDL166C); only the complex is printed as His6-Fap7:uS11; also called purified Fap7; Fap7 alone; source: E. coli BL21, purified

binding [4]: binds
B3: uS3 (endogenous), P05750 1-240 (protein)
chain: MVALISKKRKLVADGVFYAELNEFFTRELAEEGYSGVEVRVTPTKTEVIIRATRTQDVLGENGRRINELTLLVQKRFKYAPGTIVLYAERVQDRGLSAVAQAESMKFKLLNGLAIRRAAYGVVRYVMESGAKGCEVVVSGKLRAARAKAMKFADGFLIHSGQPVNDFIDTATRHVLMRQGVLGIKVKIMRDPAKSRTGPKALPDAVTIIEPKEEEPILAPSVKDYRPAEETEAQAEPVEA
